# Reference: publication PMC11225194
# Sequences of proteins named here, by UniProt entry; tags and fusion partners are left off. A change or cut given only in a name is not applied to a line headed by its entry. A line that says so, or that is headed by a name, gives the form on record, which may keep a tag or linker. Residues count along the entry.
# UniProt P68104: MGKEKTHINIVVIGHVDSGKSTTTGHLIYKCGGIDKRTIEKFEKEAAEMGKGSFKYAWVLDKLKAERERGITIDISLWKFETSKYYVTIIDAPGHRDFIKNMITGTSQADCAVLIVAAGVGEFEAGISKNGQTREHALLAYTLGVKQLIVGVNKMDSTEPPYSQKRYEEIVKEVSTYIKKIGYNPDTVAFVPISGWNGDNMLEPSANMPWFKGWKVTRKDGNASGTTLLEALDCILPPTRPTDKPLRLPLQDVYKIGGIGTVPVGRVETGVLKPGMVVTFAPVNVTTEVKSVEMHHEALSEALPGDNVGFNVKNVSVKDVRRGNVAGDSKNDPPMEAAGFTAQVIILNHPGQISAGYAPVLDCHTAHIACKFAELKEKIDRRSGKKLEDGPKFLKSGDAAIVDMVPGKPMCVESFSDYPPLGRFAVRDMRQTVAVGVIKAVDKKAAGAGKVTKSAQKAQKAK
# Flag-tagged EEF1A1 domain 2 (aa239 to aa332): residues 239-332 of P68104
# No constants are given. Whether binding was seen depends on the method and setting. In cells and extracts the contact can be indirect. Some entries that bind do so weakly or less than the wild type. For part of these data: Where a sequence is shown, tags or fusion partners need not be part of it.
# T1: Ubiquitin carboxyl-terminal hydrolase L3 (UCHL3), endogenous in HCC cells (human (endogenous in HEP3B and HUH7)) (UniProt P15374)
# T1 sequence: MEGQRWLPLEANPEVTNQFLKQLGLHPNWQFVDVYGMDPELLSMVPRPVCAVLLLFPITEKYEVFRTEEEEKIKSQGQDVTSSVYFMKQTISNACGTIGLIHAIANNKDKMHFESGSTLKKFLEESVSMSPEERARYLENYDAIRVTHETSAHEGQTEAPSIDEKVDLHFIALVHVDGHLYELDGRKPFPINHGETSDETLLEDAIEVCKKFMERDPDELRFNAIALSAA
# Key:
# [1] = molecular target: T1, Ubiquitin carboxyl-terminal hydrolase L3 (UCHL3), endogenous in HCC cells (human (endogenous in HEP3B and HUH7)); test: co-IP; endogenous proteins in HEP3B and HUH7 lysates; anti-UCHL3 or anti-EEF1A1 antibody on magnetic beads, lysate overnight at 4 C, IgG control, western blot
# [2] = molecular target: Flag-tagged EEF1A1 domain 2 (aa239 to aa332) (UniProt P68104); test: co-IP; Flag-tagged EEF1A1 constructs transfected in 293T cells and HUH7 cells, immunoprecipitation with Flag antibody on magnetic beads, western blot for UCHL3
# [3] = molecular target: Flag-tagged full-length EEF1A1 (UniProt P68104); test: as above
molecule,measurement,setting,value
"Eukaryotic translation elongation factor 1 alpha 1 (EEF1A1), endogenous in HCC cells (from UniProt P68104 1-462)",binding,[1],binds
"UCHL3 in 293T and HUH7 cells transfected with Flag-tagged EEF1A1 constructs (enzyme, UniProt P15374 1-230) MEGQRWLPLEANPEVTNQFLKQLGLHPNWQFVDVYGMDPELLSMVPRPVCAVLLLFPITEKYEVFRTEEEEKIKSQGQDVTSSVYFMKQTISNACGTIGLIHAIANNKDKMHFESGSTLKKFLEESVSMSPEERARYLENYDAIRVTHETSAHEGQTEAPSIDEKVDLHFIALVHVDGHLYELDGRKPFPINHGETSDETLLEDAIEVCKKFMERDPDELRFNAIALSAA",binding,[2],binds
same,binding,[3],binds
